{
  "source": "patent US11339419B2",
  "about": "“Scavenger protein(s) for improved preservation of analyte detection sensor(s) and method(s) of use thereof” (Siemens Healthcare Diagnostics Inc., priority 2017, dated 2022)",
  "type_in_all_cases": "biochemical",
  "key": {"[1]": {"system": "creatininase (BBI Solutions)", "experiment": "BBI Solutions Creatininase Enzyme Absorbance with BSA and MIT"}, "[2]": {"system": "sarcosine oxidase (BBI Solutions)", "experiment": "BBI Solutions Sarcosine Oxidase Enzyme Absorbance with BSA and MIT", "conditions": "37° C."}, "creatininase (Toyobo)": {"system": "creatininase (Toyobo)", "experiment": "Toyobo Creatininase Enzyme Absorbance with BSA and MIT"}},
  "note": "Several values for one entry are separate records, joined by “and”; a condition that tells them apart may be missing. Equal entries are not always repeated. The source gives many values for each of these; only a part stands here.",
  "data": [
    {"substance": "bovine serum albumin [BSA]", "values": [
      {"measurement": "Creatininase Enzyme Absorbance", "setting": "[1]; Day 0, 50 ppm MIT, 50 mg/mL BSA", "value": "0.779 and 0.748 and 0.755 and 0.766"},
      {"measurement": "Creatininase Enzyme Absorbance", "setting": "[1]; Day 0, 100 ppm MIT, 5 mg/mL BSA", "value": "0.839 and 0.784 and 0.778 and 0.782 and 0.797"},
      {"measurement": "Creatininase Enzyme Absorbance", "setting": "[1]; Day 0, 100 ppm MIT, 25 mg/mL BSA", "value": "0.785 and 0.72 and 0.705 and 0.727 and 0.751"},
      {"measurement": "Creatininase Enzyme Absorbance", "setting": "[1]; Day 0, 100 ppm MIT, 50 mg/mL BSA", "value": "0.749 and 0.669 and 0.673 and 0.678 and 0.704"},
      {"measurement": "Creatininase Enzyme Absorbance", "setting": "[1]; Day 4, 50 ppm MIT, 5 mg/mL BSA", "value": "0.972 and 0.953 and 0.913 and 0.948 and 0.937"},
      {"measurement": "Creatininase Enzyme Absorbance", "setting": "[1]; Day 4, 50 ppm MIT, 25 mg/mL BSA", "value": "0.806 and 0.821 and 0.855"},
      {"measurement": "Creatininase Enzyme Absorbance", "setting": "[1]; Day 4, 50 ppm MIT, 50 mg/mL BSA", "value": "0.659 and 0.673 and 0.665 and 0.672 and 0.658"},
      {"measurement": "Creatininase Enzyme Absorbance", "setting": "[1]; Day 4, 100 ppm MIT, 5 mg/mL BSA", "value": "0.919 and 0.895 and 0.917 and 0.914 and 0.954"},
      {"measurement": "Creatininase Enzyme Absorbance", "setting": "[1]; Day 4, 100 ppm MIT, 25 mg/mL BSA", "value": "0.815 and 0.793 and 0.796 and 0.803 and 0.82"},
      {"measurement": "Creatininase Enzyme Absorbance", "setting": "[1]; Day 4, 100 ppm MIT, 50 mg/mL BSA", "value": "0.709 and 0.7 and 0.675 and 0.691 and 0.702"},
      {"measurement": "Creatininase Enzyme Absorbance", "setting": "[1]; Day 14, 50 ppm MIT, 5 mg/mL BSA", "value": "1.1 and 1.067 and 1.062 and 1.08 and 1.103"},
      {"measurement": "Creatininase Enzyme Absorbance", "setting": "[1]; Day 14, 50 ppm MIT, 25 mg/mL BSA", "value": "0.946 and 0.906 and 0.898 and 0.922 and 0.928"},
      {"measurement": "Creatininase Enzyme Absorbance", "setting": "[1]; Day 14, 50 ppm MIT, 50 mg/mL BSA", "value": "0.739 and 0.723 and 0.714 and 0.722 and 0.751"},
      {"measurement": "Creatininase Enzyme Absorbance", "setting": "[1]; Day 14, 100 ppm MIT, 5 mg/mL BSA", "value": "1.099 and 1.043 and 1.031 and 1.064 and 1.075"},
      {"measurement": "Creatininase Enzyme Absorbance", "setting": "[1]; Day 14, 100 ppm MIT, 25 mg/mL BSA", "value": "0.917 and 0.892 and 0.889 and 0.911"},
      {"measurement": "Creatininase Enzyme Absorbance", "setting": "[1]; Day 14, 100 ppm MIT, 50 mg/mL BSA", "value": "0.755 and 0.744 and 0.718"},
      {"measurement": "Sarcosine Oxidase Enzyme Absorbance, replicates 7-11", "setting": "[2]; Day 0, 5 mg/mL BSA only, no MIT (50 ppm MIT row)", "value": "1.432 and 1.435 and 1.451 and 1.43"},
      {"measurement": "Sarcosine Oxidase Enzyme Absorbance, replicates 7-11", "setting": "[2]; Day 0, 5 mg/mL BSA only, no MIT (100 ppm MIT row)", "value": 1.425},
      {"measurement": "Sarcosine Oxidase Enzyme Absorbance, replicates 7-11", "setting": "[2]; Day 0, 25 mg/mL BSA only, no MIT (50 ppm MIT row)", "value": "1.435 and 1.421 and 1.396 and 1.399"},
      {"measurement": "Sarcosine Oxidase Enzyme Absorbance, replicates 7-11", "setting": "[2]; Day 0, 25 mg/mL BSA only, no MIT (100 ppm MIT row)", "value": 1.436},
      {"measurement": "Sarcosine Oxidase Enzyme Absorbance, replicates 7-11", "setting": "[2]; Day 0, 50 mg/mL BSA only, no MIT (50 ppm MIT row)", "value": "1.428 and 1.464 and 1.467 and 1.474"},
      {"measurement": "Sarcosine Oxidase Enzyme Absorbance, replicates 7-11", "setting": "[2]; Day 0, 50 mg/mL BSA only, no MIT (100 ppm MIT row)", "value": "1.406 and 1.388 and 1.393 and 1.395 and 1.403"},
      {"measurement": "Sarcosine Oxidase Enzyme Absorbance, replicates 7-11", "setting": "[2]; Day 4, 5 mg/mL BSA only, no MIT (50 ppm MIT row)", "value": "1.448 and 1.472 and 1.459 and 1.441 and 1.443"},
      {"measurement": "Sarcosine Oxidase Enzyme Absorbance, replicates 7-11", "setting": "[2]; Day 4, 5 mg/mL BSA only, no MIT (100 ppm MIT row)", "value": "1.342 and 1.43 and 1.424 and 1.452 and 1.382"},
      {"measurement": "Sarcosine Oxidase Enzyme Absorbance, replicates 7-11", "setting": "[2]; Day 4, 25 mg/mL BSA only, no MIT (50 ppm MIT row)", "value": "1.419 and 1.431 and 1.41 and 1.38 and 1.398"},
      {"measurement": "Sarcosine Oxidase Enzyme Absorbance, replicates 7-11", "setting": "[2]; Day 4, 25 mg/mL BSA only, no MIT (100 ppm MIT row)", "value": "1.371 and 1.412 and 1.423 and 1.39 and 1.398"},
      {"measurement": "Sarcosine Oxidase Enzyme Absorbance, replicates 7-11", "setting": "[2]; Day 4, 50 mg/mL BSA only, no MIT (50 ppm MIT row)", "value": "1.412 and 1.555 and 1.531 and 1.48 and 1.6"},
      {"measurement": "Sarcosine Oxidase Enzyme Absorbance, replicates 7-11", "setting": "[2]; Day 4, 50 mg/mL BSA only, no MIT (100 ppm MIT row)", "value": "1.386 and 1.407 and 1.412 and 1.423 and 1.401"},
      {"measurement": "Sarcosine Oxidase Enzyme Absorbance, replicates 7-11", "setting": "[2]; Day 14, 5 mg/mL BSA only, no MIT (50 ppm MIT row)", "value": "1.433 and 1.422 and 1.429 and 1.438 and 1.435"},
      {"measurement": "Sarcosine Oxidase Enzyme Absorbance, replicates 7-11", "setting": "[2]; Day 14, 5 mg/mL BSA only, no MIT (100 ppm MIT row)", "value": "1.447 and 1.448 and 1.387 and 1.525 and 1.544"},
      {"measurement": "Sarcosine Oxidase Enzyme Absorbance, replicates 7-11", "setting": "[2]; Day 14, 25 mg/mL BSA only, no MIT (50 ppm MIT row)", "value": "1.428 and 1.435 and 1.431 and 1.407 and 1.426"},
      {"measurement": "Sarcosine Oxidase Enzyme Absorbance, replicates 7-11", "setting": "[2]; Day 14, 25 mg/mL BSA only, no MIT (100 ppm MIT row)", "value": "1.395 and 1.454 (2×) and 1.474 and 1.456"},
      {"measurement": "Sarcosine Oxidase Enzyme Absorbance, replicates 7-11", "setting": "[2]; Day 14, 50 mg/mL BSA only, no MIT (50 ppm MIT row)", "value": "1.413 and 1.42 and 1.412 and 1.423 (2×)"},
      {"measurement": "Sarcosine Oxidase Enzyme Absorbance, replicates 7-11", "setting": "[2]; Day 14, 50 mg/mL BSA only, no MIT (100 ppm MIT row)", "value": "1.489 and 1.51 and 1.464 and 1.486 and 1.48"},
      {"measurement": "Creatininase Enzyme Absorbance, columns 7-11", "setting": "creatininase (Toyobo); Day 0, 5 mg/mL BSA, no MIT (row of 50 ppm MIT)", "value": "0.787 and 0.823 and 0.825"},
      {"measurement": "Creatininase Enzyme Absorbance, columns 7-11", "setting": "creatininase (Toyobo); Day 0, 5 mg/mL BSA, no MIT (row of 100 ppm MIT)", "value": 0.826},
      {"measurement": "Creatininase Enzyme Absorbance, columns 7-11", "setting": "creatininase (Toyobo); Day 0, 25 mg/mL BSA, no MIT (row of 50 ppm MIT)", "value": "0.776 and 0.77 and 0.817 and 0.824"},
      {"measurement": "Creatininase Enzyme Absorbance, columns 7-11", "setting": "creatininase (Toyobo); Day 0, 25 mg/mL BSA, no MIT (row of 100 ppm MIT)", "value": 0.775},
      {"measurement": "Creatininase Enzyme Absorbance, columns 7-11", "setting": "creatininase (Toyobo); Day 0, 50 mg/mL BSA, no MIT (row of 50 ppm MIT)", "value": "0.823 and 0.839 and 0.878 and 0.87"},
      {"measurement": "Creatininase Enzyme Absorbance, columns 7-11", "setting": "creatininase (Toyobo); Day 0, 50 mg/mL BSA, no MIT (row of 100 ppm MIT)", "value": 0.757},
      {"measurement": "Creatininase Enzyme Absorbance, columns 7-11", "setting": "creatininase (Toyobo); Day 4, 5 mg/mL BSA, no MIT (row of 50 ppm MIT)", "value": "1.028 and 1.018 and 1.013 and 1.041 and 1.02"},
      {"measurement": "Creatininase Enzyme Absorbance, columns 7-11", "setting": "creatininase (Toyobo); Day 4, 5 mg/mL BSA, no MIT (row of 100 ppm MIT)", "value": "0.996 and 0.965 and 0.967 and 1.015 and 1.005"},
      {"measurement": "Creatininase Enzyme Absorbance, columns 7-11", "setting": "creatininase (Toyobo); Day 4, 25 mg/mL BSA, no MIT (row of 50 ppm MIT)", "value": "0.872 and 0.851 and 0.852 and 0.866 and 0.845"},
      {"measurement": "Creatininase Enzyme Absorbance, columns 7-11", "setting": "creatininase (Toyobo); Day 4, 25 mg/mL BSA, no MIT (row of 100 ppm MIT)", "value": "0.837 and 0.819 and 0.821 and 0.853 and 0.842"},
      {"measurement": "Creatininase Enzyme Absorbance, columns 7-11", "setting": "creatininase (Toyobo); Day 4, 50 mg/mL BSA, no MIT (row of 50 ppm MIT)", "value": "0.729 and 0.721 and 0.727 and 0.759 and 0.76"},
      {"measurement": "Creatininase Enzyme Absorbance, columns 7-11", "setting": "creatininase (Toyobo); Day 4, 50 mg/mL BSA, no MIT (row of 100 ppm MIT)", "value": "0.729 and 0.711 and 0.714 and 0.742 and 0.72"},
      {"measurement": "Creatininase Enzyme Absorbance, columns 7-11", "setting": "creatininase (Toyobo); Day 14, 5 mg/mL BSA, no MIT (row of 50 ppm MIT)", "value": "1.098 and 1.137 and 1.087 and 1.119 and 1.145"},
      {"measurement": "Creatininase Enzyme Absorbance, columns 7-11", "setting": "creatininase (Toyobo); Day 14, 5 mg/mL BSA, no MIT (row of 100 ppm MIT)", "value": "1.089 and 1.072 and 1.098 and 1.083"},
      {"measurement": "Creatininase Enzyme Absorbance, columns 7-11", "setting": "creatininase (Toyobo); Day 14, 25 mg/mL BSA, no MIT (row of 50 ppm MIT)", "value": "0.926 and 0.932 and 0.887 and 0.923 and 0.916"},
      {"measurement": "Creatininase Enzyme Absorbance, columns 7-11", "setting": "creatininase (Toyobo); Day 14, 25 mg/mL BSA, no MIT (row of 100 ppm MIT)", "value": "0.961 and 0.95 and 0.904 and 0.939 and 0.946"},
      {"measurement": "Creatininase Enzyme Absorbance, columns 7-11", "setting": "creatininase (Toyobo); Day 14, 50 mg/mL BSA, no MIT (row of 50 ppm MIT)", "value": "0.769 and 0.778 and 0.743 and 0.773 and 0.764"}
    ]}
  ]
}
